# Source: PubChem BioAssay AID493246 (Drosophila RNAi Screening Center, 2011)
# Assay: 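Identify essential fly genes by loss of cell viability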 (primary screen)
# Cells: Drosophila Kc and S2R+ cells
# Knock-down reagent: long dsRNA against Drosophila genes
# Measured: 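Raw, unnormalised count of remaining cells in each well; per-plate z-scores of cell number underlie the calls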
# Direction: Kc cell number and S2R+ cell number: higher = more cells remaining
# Call rule: 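Counted as a hit if cell number falls by a z-score of at least 3 within its plate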
# The deposit covers about 21,000 reagents; this is an unselected part of those with a known target gene and a result. In the full data, 429 (2%) are marked active. 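Values are raw and not normalised between plates; calls rest on per-plate z-scores that were not deposited.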 Names joined by + are all predicted targets of the reagent. Reagent sequences are not shown. Not stated in the record: the amount of reagent, the time to read-out.
gene knocked down,amplicon,"Kc cell number, rep 1","Kc cell number, rep 2","S2R+ cell number, rep 1","S2R+ cell number, rep 2",activity call
tok,DRSC17087,1.86e6,1.82e6,1.34e6,1.39e6,inactive
Oatp58Db,DRSC04364,1.66e6,1.82e6,1.35e6,3.77e5,inactive
CG5104,DRSC11765,1.37e6,1.39e6,1.34e6,1.44e6,inactive
E(spl)m8-HLH,DRSC16654,1.32e6,1.38e6,1.07e6,1.12e6,inactive
BubR1,DRSC04838,1.49e6,1.54e6,1.04e6,1.24e6,inactive
CG14866,DRSC14989,1.17e6,1.37e6,1.15e6,1.20e6,inactive
CG11099,DRSC06034,1.81e6,1.90e6,1.35e6,1.54e6,inactive
Psf1,DRSC08638,1.60e6,1.73e6,1.04e6,1.16e6,inactive
PGRP-LD + Pmi,DRSC10512,8.72e5,1.09e6,1.36e6,6.66e5,inactive
PGRP-LD + Pmi,DRSC10513,1.28e6,1.23e6,1.25e6,1.29e6,inactive
CG16952,DRSC19759,1.39e6,1.46e6,1.05e6,1.15e6,inactive
CG9095,DRSC20150,1.47e6,1.47e6,1.20e6,1.29e6,inactive
CG9297,DRSC16469,1.62e6,1.65e6,1.33e6,1.33e6,inactive
Spp,DRSC00328,1.41e6,1.42e6,6.22e5,6.69e5,inactive
psq,DRSC07668,2.88e5,4.36e5,2.94e5,4.14e5,active
ath,DRSC02788,1.69e6,1.75e6,1.16e6,1.31e6,inactive
tld,DRSC17084,1.52e6,1.77e6,1.04e6,1.11e6,inactive
CG12945,DRSC14573,1.46e6,1.54e6,1.35e6,1.46e6,inactive
CG32462,DRSC11851,1.57e6,1.59e6,1.39e6,1.41e6,inactive
Dcr-1,DRSC15646,1.50e6,1.62e6,1.17e6,1.24e6,inactive
CG14961,DRSC08420,1.44e6,1.30e6,9.95e5,1.18e6,inactive
GAA1,DRSC18267,5.45e5,,8.87e5,,inactive
CG8630,DRSC16441,8.95e5,9.54e5,1.03e6,1.16e6,inactive
Cda5,DRSC00003,1.43e6,1.39e6,1.02e6,1.16e6,inactive
Cda5,DRSC00529,1.50e6,1.52e6,1.07e6,1.22e6,inactive
Cda5,DRSC00532,1.60e6,1.63e6,1.18e6,1.28e6,inactive
CG33757,DRSC05159,1.43e6,1.48e6,9.97e5,1.04e6,inactive
l(3)80Fj,DRSC20986,1.17e6,1.36e6,1.11e6,1.13e6,inactive
l(3)80Fj,DRSC20989,1.46e6,1.41e6,1.03e6,1.14e6,inactive
CG11357,DRSC08183,1.36e6,1.37e6,1.05e6,1.17e6,inactive
His-Psi:CR31616 + His-Psi:CR31615,DRSC03760,2.39e5,,3.91e5,,active
CG15071,DRSC06504,1.61e6,1.62e6,1.17e6,1.32e6,inactive
Gasz,DRSC06829,1.37e6,1.45e6,1.08e6,1.15e6,inactive
Gr23a,DRSC00410,1.69e6,1.69e6,1.14e6,1.27e6,inactive
Hsp110,DRSC11186,1.55e6,1.67e6,1.18e6,1.24e6,inactive
Ccdc39,DRSC12286,1.39e6,1.43e6,1.24e6,1.44e6,inactive
CG10195,DRSC02026,1.71e6,1.73e6,1.26e6,3.06e5,inactive
Su(var)3-7,DRSC16872,1.45e6,1.44e6,1.15e6,1.22e6,inactive
escl,DRSC02828,1.49e6,1.70e6,1.32e6,1.16e6,inactive
CG30010,DRSC05193,1.49e6,1.57e6,9.66e5,1.09e6,inactive
CG3009,DRSC18263,5.58e5,,8.48e5,,inactive
Atu,DRSC12123,1.67e6,1.77e6,1.21e6,1.24e6,inactive
Tis11,DRSC20293,4.02e5,,5.68e5,,inactive
Mics1,DRSC12537,1.41e6,1.55e6,1.23e6,1.31e6,inactive
ND-B14,DRSC07029,1.60e6,1.67e6,1.07e6,1.22e6,inactive
Cpr49Ae,DRSC07201,1.33e6,1.40e6,9.77e5,1.08e6,inactive
CG9945,DRSC07347,1.61e6,1.46e6,9.88e5,1.21e6,inactive
AttA,DRSC05926,1.60e6,1.68e6,1.27e6,1.17e6,inactive
Mdr65,DRSC11220,1.73e6,1.73e6,1.19e6,1.25e6,inactive
CG3386,DRSC08566,1.61e6,1.49e6,1.15e6,1.31e6,inactive
CG1239,DRSC12204,1.56e6,1.65e6,1.32e6,1.36e6,inactive
CG3091,DRSC18274,1.52e6,1.59e6,1.06e6,1.27e6,inactive
GlcAT-I,DRSC17307,1.16e6,1.38e6,9.55e5,9.30e5,inactive
SLIRP1 + anox,DRSC20542,1.69e6,1.69e6,1.15e6,1.20e6,inactive
CG6638,DRSC10680,1.44e6,1.31e6,1.07e6,1.13e6,inactive
dpr12,DRSC04814,1.44e6,1.52e6,9.56e5,1.06e6,inactive
dpr12,DRSC04863,1.79e6,1.88e6,1.26e6,1.30e6,inactive
dpr12,DRSC04892,1.51e6,1.83e6,1.48e6,1.46e6,inactive
AgmNAT,DRSC18072,1.43e6,1.49e6,1.04e6,1.12e6,inactive

5 entries already listed, ordered by “Kc cell number, rep 1”, low to high.
gene knocked down,amplicon,"Kc cell number, rep 1","Kc cell number, rep 2","S2R+ cell number, rep 1","S2R+ cell number, rep 2",activity call
PGRP-LD + Pmi,DRSC10513,1.28e6,1.23e6,1.25e6,1.29e6,inactive
CG16952,DRSC19759,1.39e6,1.46e6,1.05e6,1.15e6,inactive
Spp,DRSC00328,1.41e6,1.42e6,6.22e5,6.69e5,inactive
CG9095,DRSC20150,1.47e6,1.47e6,1.20e6,1.29e6,inactive
CG9297,DRSC16469,1.62e6,1.65e6,1.33e6,1.33e6,inactive
